Measurements published in the supplement of paper PMC3334620.
Over roughly 33,000 sequences, “E-score (-0.5 to 0.5)” has its median near -0.0034; the highest 2% begin near 0.25. The list shows a part of the results.

Target: T1, Yap3 (UniProt P38749)
T1 sequence: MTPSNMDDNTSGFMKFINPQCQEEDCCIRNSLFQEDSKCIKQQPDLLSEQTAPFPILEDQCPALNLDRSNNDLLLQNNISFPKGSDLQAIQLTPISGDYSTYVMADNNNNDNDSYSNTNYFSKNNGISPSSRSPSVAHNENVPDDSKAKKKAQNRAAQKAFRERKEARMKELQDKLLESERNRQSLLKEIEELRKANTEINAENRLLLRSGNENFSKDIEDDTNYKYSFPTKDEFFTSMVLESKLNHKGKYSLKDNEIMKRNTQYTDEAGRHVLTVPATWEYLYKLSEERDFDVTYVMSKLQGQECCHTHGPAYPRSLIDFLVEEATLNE
Test: PBM E-score (8-mer binding enrichment) (E-score (-0.5 to 0.5)); higher = stronger / more preferred TF binding
Settings: protein concentration: 100 nM; construct: GST-full length
Outline: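 Universal all-10-mer Agilent arrays, double-stranded by primer extension on fresh or once-stripped slides, were probed with about 100-200 nM GST-tagged yeast transcription factors made by PURExpress. Fluorescent anti-GST detected bound protein, and masliner normalised the scans. E-scores from the Universal PBM Analysis Suite were given to each ungapped eight-base word pooled with its reverse complement.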

Row | Sequence | PBM E-score
1 | AAACACAT | 0.0277
2 | ATCTGCTC | 0.0168
3 | AGGGCCCT | -0.12
4 | TACTGCTA | 0.0241
5 | AAATGACT | -0.0271
6 | GCAGGTTA | -0.0925
7 | CAAGTGGG | -0.148
8 | CACCCGTC | -0.00816
9 | AAACGCGC | -0.0832
10 | CGTGTGCA | 0.0539
11 | AACAACAA | 0.259
12 | CAACGGCC | -0.133
13 | AAGTGTAA | 0.00716
14 | ACTCACTG | 0.0421
15 | AATGTGAC | 0.145
16 | GAGCGGAA | 0.1
17 | AGATCCAC | 0.0145
18 | AGGACTAA | 0.0347
19 | CACGAGGG | -0.29
20 | AGCCATTG | 0.114
21 | AAAGTCAT | 0.0714
22 | AGCAAGGA | -0.0831
23 | ACAGGTAG | 0.0469
24 | CTTAGACA | -0.112
25 | ACTCATAC | 0.0362

Quoted at random: 5 records from the list
Row | Sequence | PBM E-score
9 | AAACGCGC | -0.0832
24 | CTTAGACA | -0.112
11 | AACAACAA | 0.259
13 | AAGTGTAA | 0.00716
1 | AAACACAT | 0.0277

Continued.

Row | Sequence | PBM E-score
26 | AAGGTCTA | -0.107
27 | AATCGCAT | 0.112
28 | ATTGAAGC | -0.0735
29 | CCAACACA | 0.144
30 | TATTTGAA | 0.157
31 | GCCCAGAA | -0.0812
32 | CCTTAGCG | -0.0416
33 | CTAGTAGC | -0.0823
34 | CCAGCGGC | -0.0373
35 | AAAAAGGT | 0.0468
36 | AAGTAACA | 0.235
37 | GCCTTGAC | -0.125
38 | CCTGCTCA | -0.113
39 | CCGCTGAA | -0.075
40 | ACTACGAG | 0.0301
41 | CGTGTGTA | 0.172
42 | CACTTTTA | 0.102
43 | CGCCTCAA | 0.0431
44 | AATCCGGA | 0.256
45 | AATGCGTG | 0.186
46 | ACGCCGCC | -0.198
47 | AGTGAGTA | 0.271
48 | GTTAGACA | 0.227
49 | AACGCGAA | 0.298
50 | GTCGAGTA | -0.00233

Row | Sequence | PBM E-score
51 | CTCATCTC | 0.157
52 | CGGTGACG | -0.021
53 | GCGCGCAC | 0.0874
54 | GGCATGAC | -0.118
55 | TACTAATA | 0.267
56 | ATAACTAT | 0.0705
57 | TCCATCGA | 0.0124
58 | TGCGCGAA | 0.156
59 | CAATACCA | 0.121
60 | TCTACTAA | 0.212
61 | AAATCGCG | 0.105
62 | GGTAGAGA | 0.0626
63 | CGTATTTC | 0.113
64 | GTCCGGTA | -0.0675
65 | ATTTACCG | 0.203
66 | AACCTCAA | 0.0262
67 | CATATGCG | 0.115
68 | GGCTCTTA | -0.124
69 | GGGTTGTA | -0.0576
70 | GTACCAAA | 0.172
71 | CGAGGACG | -0.0782
72 | ATGGGGTA | 0.0129
73 | TCGGAAGA | -0.0733
74 | ATGGATCC | 0.125
75 | GATTCGAC | 0.00253

Individual results from the results shown.
Value of AGTGAGTA under PBM E-score: 0.271
Value of AAACGCGC under PBM E-score: -0.0832
Value of CCGCTGAA under PBM E-score: -0.075
Value of GAGCGGAA under PBM E-score: 0.1

Following part.

Row | Sequence | PBM E-score
76 | ATTGTAGA | 0.206
77 | TAGTAGAA | -0.00059
78 | GGGCTTAA | -0.232
79 | GCGGCGAA | -0.0178
80 | CCATACGC | 0.147
81 | AGTGGTTA | 0.142
82 | AGGGTAGG | -0.047
83 | AAGCCTTA | -0.103
84 | GTCGTGCA | -0.0612
85 | AAAGACTG | -0.0469
86 | AGTTATTC | 0.096
87 | CTGGGGAC | -0.357
88 | GGGGTACC | -0.385
89 | ATACAGTG | 0.192
90 | ACTTGGTA | 0.0764
91 | ACTTTACT | 0.284
92 | ACGGAGCA | -0.0147
93 | GAGATCGA | 0.0135
94 | GCTGACCC | -0.278
95 | ACGATCAA | 0.0848
96 | CCTCCACC | -0.31
97 | CAACTGGC | -0.0753
98 | AATAACGT | 0.0995
99 | CGTTAACA | 0.0894
100 | CGGGAGTC | -0.26

Row | Sequence | PBM E-score
101 | ATAACAGG | -0.0244
102 | CATGGATA | 0.0907
103 | GCGAAAAC | 0.0661
104 | AACACTTA | 0.119
105 | CGTGTCGC | 0.045
106 | CACACTGG | -0.0659
107 | CAATCAGA | 0.00443
108 | AGAAGCGA | 0.0446
109 | ACAATTAA | 0.208
110 | CACCAACC | 0.0462
111 | ACAGTCAG | 0.0472
112 | CTCGCTAC | -0.0448
113 | GATAGTGA | 0.189
114 | CCAAGGGG | -0.158
115 | AAGATGAG | -0.052
116 | GAGCTAGC | 0.0975
117 | CCACGCGA | 0.0898
118 | AAGAGCAC | -0.0358
119 | AAACCATA | 0.0929
120 | GAGCCATA | -0.114
121 | CATGGGGC | -0.272
122 | GCAGCCAA | 0.113
123 | CTCGGCTC | -0.161
124 | CAGAAGTA | 0.127
125 | TCAACCCA | -0.00582

Row | Sequence | PBM E-score
126 | AGGTAAGC | 0.0562
127 | ATGAGTGA | 0.229
128 | GATAATCA | 0.221
129 | ATGTGAAG | 0.0755
130 | CATCATTC | 0.0899
131 | TGTAGTAA | 0.128
132 | AATTGAAA | 0.189
133 | GCTCTAAC | -0.12
134 | CCAGAATC | -0.0407
135 | ATTCTGAC | -0.0137
136 | CACTGAGG | -0.188
137 | CGAAATCA | 0.216
138 | CGAGAAGA | 0.0591
139 | CGAGTTGC | 0.153
140 | ATCGACCG | -0.0482
141 | GCCTCACA | -0.00779
142 | ATCGCGAA | 0.149
143 | AAGGCGAT | -0.0876
144 | CTGGGCGA | -0.195
145 | TGCACGAA | 0.165
146 | AGTGATAG | -0.0431
147 | TCAAAAAA | 0.185
148 | CCAGCCGG | -0.164
149 | TCAGTGGA | -0.16
150 | ACAAACGA | 0.199

Row | Sequence | PBM E-score
151 | ATCTGCAT | 0.193
152 | AAGTAACT | 0.0661
153 | ACTGTTAT | 0.201
154 | CTAACCCC | -0.281
155 | GAGGGATA | -0.146
156 | ACACTCCA | -0.0338
157 | ATTACGTG | 0.397
158 | CGCTTACG | 0.149
159 | GGATCTAA | -0.182
160 | CCATTGAA | 0.0891
161 | CTATCAGC | 0.0169
162 | GTCGGCTA | -0.103
163 | GGATCGTA | -0.126
164 | CCAAGACA | -0.0123
165 | CTCGCGAC | 0.068
166 | TACGGGCA | -0.127
167 | ATAGATAG | -0.0309
168 | ACGCACAT | 0.0722
169 | AGTCTTTA | -0.0742
170 | AGTATCAT | 0.104
171 | ACACGTCA | 0.027
172 | ATTCCTCA | 0.0587
